{
  "source": "patent US4943562A",
  "about": "“Tetra- and pentapeptides containing the lysyl-arginyl-aspartyl sequence and their applications as medicines, particularly anti-thrombotic medicines” (Institut des Vaisseaux et du Sang, priority 1987, dated 1990)",
  "test_system": "human platelets",
  "assay": "ADP induced platelet aggregation in vitro",
  "format": "cell-based",
  "conditions": "1000 μM of each peptide",
  "note": "Not every detail of the peptide structures is certain; ends, links or a residue may be inferred. Ends that are not written are not given here.",
  "data": [
    {"substance": "YKRDS [peptide 3, Tyr-Lys-Arg-Asp-Ser]", "values": [
      {"measurement": "Platelet aggregation inhibition in %", "value": 55, "unit": "%"}
    ]}
  ]
}
